Laboratory results as given in publication PMC5613952.
These are yes or no findings as the source states them, for the method shown. In cells and extracts the contact can be indirect. Some results given as binding are weak or reduced against the parent protein; the word gives no strength. Tags and fused reporters may be left off the sequences shown.

Sequences of proteins named here, by UniProt entry; tags and fusion partners are left off.
UniProt Q13547: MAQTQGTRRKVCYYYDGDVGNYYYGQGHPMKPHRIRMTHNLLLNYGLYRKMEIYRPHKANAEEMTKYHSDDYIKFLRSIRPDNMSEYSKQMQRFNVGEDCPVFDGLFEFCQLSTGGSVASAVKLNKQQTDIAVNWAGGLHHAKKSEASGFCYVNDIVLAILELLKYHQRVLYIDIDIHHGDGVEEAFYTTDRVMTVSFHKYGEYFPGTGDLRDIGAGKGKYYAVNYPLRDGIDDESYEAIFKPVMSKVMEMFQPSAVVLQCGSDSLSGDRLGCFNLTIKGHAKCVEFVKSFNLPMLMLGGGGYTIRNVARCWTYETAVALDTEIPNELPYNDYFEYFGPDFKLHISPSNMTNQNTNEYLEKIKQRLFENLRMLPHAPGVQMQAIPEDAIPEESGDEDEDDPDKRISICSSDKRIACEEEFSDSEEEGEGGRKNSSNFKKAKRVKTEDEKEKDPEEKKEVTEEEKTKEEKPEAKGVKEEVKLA

Target: T1, MTA3 with V5 tag (MTA3V5), metastasis-associated protein 3 (UniProt Q9BTC8)
T1 sequence: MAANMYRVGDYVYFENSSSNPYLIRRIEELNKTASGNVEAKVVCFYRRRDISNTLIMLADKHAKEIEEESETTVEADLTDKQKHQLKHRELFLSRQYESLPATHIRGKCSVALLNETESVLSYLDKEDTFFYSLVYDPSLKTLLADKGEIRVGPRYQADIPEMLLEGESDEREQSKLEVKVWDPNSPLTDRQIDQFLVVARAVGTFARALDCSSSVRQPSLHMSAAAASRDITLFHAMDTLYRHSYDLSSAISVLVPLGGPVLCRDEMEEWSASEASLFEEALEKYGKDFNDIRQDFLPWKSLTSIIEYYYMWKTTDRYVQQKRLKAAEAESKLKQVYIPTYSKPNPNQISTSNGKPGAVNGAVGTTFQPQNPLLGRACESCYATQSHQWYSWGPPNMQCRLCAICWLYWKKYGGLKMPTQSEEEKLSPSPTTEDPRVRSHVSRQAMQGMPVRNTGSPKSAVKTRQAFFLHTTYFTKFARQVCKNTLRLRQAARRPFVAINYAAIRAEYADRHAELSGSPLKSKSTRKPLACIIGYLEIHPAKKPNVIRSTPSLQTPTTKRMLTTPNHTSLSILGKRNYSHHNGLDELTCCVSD
Assay: co-IP; lysate (NETN buffer) of HTR8/SVneo cells overexpressing MTA3V5; 1 mg whole protein precipitated with MTA3 rabbit antibody or V5 antibody against non-specific IgG, magnetic Dynabeads; HDAC1 detected by Western blot

## histone deacetylase 1 (HDAC1) (from UniProt Q13547 1-482)
  binding: binds
